Data as given in patent publication US20030121063.
Construct, isoform or probe ends are uncertain for at least one entry. The comparison behind a weaker result is the experiment's own reference, which may not be listed here.

Biological target: L1 ENp (L1 ORF2 endonuclease domain) (Homo sapiens) (UniProt O00370)
Assay: enzyme reaction in vitro
Details: purified recombinant protein, protein details: His6 (pET15b, E. coli BL21(DE3))

Sequence: AAAAAAAGGATCTCAAGAAGATCCTTTGATCTTTTCTACGGGGTCTGACGCTCAGTGGAACGAAAACTCACGTTAAGGGATTTTGGTCATGAGATTATCAAAAAGGATCTTCACCTAGATCCTTTTAAATTAAAAATGAAGTTTTAAATCAATCTAAAGTATAT (double strand) [pBS plasmid cleavage hotspot region]
- activity on this sequence (preferred nicking sites mapped by primer extension, 5 mM MgCl2, 50 mM KCl, pH 7.6, 37 C): active

Sequence: AAAAAAAGGATCTCAAGAAGATCCTTTGATCTTTTCTACGGGGTCTGACGCTCAGTGGAACGAAAACTCACGTTAAGGGATTTTGGTCATGAGATTATCAAAAAGGATCTTCACCTAGATCCTTTTAAATTAAAAATGAAGTTTTAAATCAATCTAAAGTATAT [relaxed closed circular pBS]
- activity on this sequence (four times more enzyme needed than for supercoiled, same cleavage specificity, variant of pBS plasmid cleavage hotspot region): less active

Sequence: GAGGCCTAAAATTCCAACCGAAAATCGCGAGGTTACTTTTTTGGAGCCCGAAAACCACCCAAAATCAAGGAAAAATGGCCAAAAAATGCCAAAAAATAGCGAAAATACCCCGAAAATTGGCAAAAATTAACAAAAAATAGCGAATTTCCCTGAATTTTAGGCGAAAAAACCCCCGAAAATGGCCAAAAACGCACTGAAAATCAAAATCTGAACGTCTACG (double strand) [K-DNA bent fragment in pPK201/CAT]
- activity on this sequence (hotspot in subset of oligo A tracts, used about equally with the pBS hotspot): active
